PubChem BioAssay AID1259425, University of Nebraska Medical Center – 2018
This is an unselected part of about 14,000 deposited reagents. Not all columns of the deposit are shown. Not stated in the record: the time to read-out.

- Test: 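Seek colon cancer weak points whose silencing resembles KSR1 loss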 (primary screen)
- System: HCT116 human colon cancer cells
- Reagents: siRNA pool against human genes, 50 nM siRNA
- Measured: 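mRNA of six signature genes measured together by branched-DNA assay after 50 nM siRNA pool, blank removed, divided by geometric mean of two housekeeping genes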
- Direction: BNIP3L mRNA: higher = more BNIP3L transcript after knockdown

Silencing of GNRHR2 resulted in: BNIP3L mRNA, set 1 = 0.332.
Against KIAA1210, the entry reads BNIP3L mRNA, set 1 = 0.0911.
Silencing of AP3B2 came out at: BNIP3L mRNA, set 1 = 0.172.
Knock-down of RFXANK resulted in: BNIP3L mRNA, set 1 = 0.155.
ZBTB43 gave BNIP3L mRNA, set 1 = 0.04.
With knock-down of RASA2, the record shows BNIP3L mRNA, set 1 = 0.0386.
After knock-down of GOLGA6B the results were BNIP3L mRNA, set 1 = 0.13.
Against CDH15, the values are BNIP3L mRNA, set 1 = 0.108.
Against WRN, the values are BNIP3L mRNA, set 1 = 0.154.
For NKAP, the values are BNIP3L mRNA, set 1 = 0.109.
With knock-down of MN1 the results were BNIP3L mRNA, set 1 = 0.0951.
Knock-down of SNRPA1 came out at: BNIP3L mRNA, set 1 = 0.144.
For SULT1B1, the entry reads BNIP3L mRNA, set 1 = 0.0881.
With knock-down of STEEP1, the screen gave BNIP3L mRNA, set 1 = 0.0852.
Knock-down of NTF4 came out at: BNIP3L mRNA, set 1 = 0.079.
Knock-down of MOGS gave: BNIP3L mRNA, set 1 = 0.0681.
Against WDR47, the values are BNIP3L mRNA, set 1 = 0.108.
Against FAM234A the deposit lists BNIP3L mRNA, set 1 = 0.318.
RBSN gave BNIP3L mRNA, set 1 = 0.0957.
Depletion of TRPC1 came out at: BNIP3L mRNA, set 1 = 0.0594.
Silencing of FBXO10 resulted in: BNIP3L mRNA, set 1 = 0.0664.
Against NKD1, the values are BNIP3L mRNA, set 1 = 0.0925.
Against RPS12, the values are BNIP3L mRNA, set 1 = 0.0832.
With knock-down of ATG4C, the screen gave BNIP3L mRNA, set 1 = 0.12.
Silencing of MTMR9 resulted in: BNIP3L mRNA, set 1 = 0.102.
Against POLR3F the deposit lists BNIP3L mRNA, set 1 = 0.123.
EFCAB14 showed BNIP3L mRNA, set 1 = 0.0981.
Knock-down of KPNA2 came out at: BNIP3L mRNA, set 1 = 0.153.
Silencing of CTIF resulted in: BNIP3L mRNA, set 1 = 0.209.
Depletion of ELAC2 came out at: BNIP3L mRNA, set 1 = 0.118.
MOCS2 gave BNIP3L mRNA, set 1 = 0.0655.
For CASZ1, the entry reads BNIP3L mRNA, set 1 = 0.0984.
Against PRLR the deposit lists BNIP3L mRNA, set 1 = 0.0855.
After knock-down of SLC17A2, the screen gave BNIP3L mRNA, set 1 = 0.1.
After knock-down of CXCR1, the record shows BNIP3L mRNA, set 1 = 0.136.
SULT4A1 scored BNIP3L mRNA, set 1 = 0.111.

Not a retest: an excerpt of the list.
RFXANK — BNIP3L mRNA, set 1: 0.155
ZBTB43 — BNIP3L mRNA, set 1: 0.04
